Laboratory results: patent US8137921B2, “Homogeneous time resolved fluorescence based test system for Paramyxoviridae” (priority 2006, dated 2012)
At least one peptide structure holds a part that was inferred or is arguable (an end, a ring closure or a residue). Some results were stated once for a whole list of compounds, not compound by compound. At least one compound was matched to its structure with a doubt left. Ends that are not written are not given here. Peptide text beside a SMILES is read from it.

Key:
[1] = molecular target: T1, RSV six-helix bundle of F1 (IQN57-biotin/C45-Eu complex) (Human respiratory syncytial virus A, UniProt P03420); assay: IQN57-APC/C45-Eu assay (time resolved FRET, 6HB complex formation); type: binding; conditions: read-out: IC50 IQN57-APC/C45-EU; 10 nM streptavidin-APC, 100 nM IQN57-biotin, 25 nM C45-Eu; 0.5% DMSO; 50% inhibition of FRET signal
T1 construct: (RSV-IQN57); made in house; host or cells: chemical peptide synthesis

[2] = molecular target: T2, RSV six-helix bundle of F1 (IQN51-biotin/C39-Eu complex) (Human respiratory syncytial virus A, UniProt P03420); assay: IQN51-APC/C39-Eu assay (time resolved FRET, 6HB complex formation); type: binding; conditions: read-out: IC50 IQN51-APC/C39-EU; 10 nM streptavidin-APC, 100 nM IQN51-biotin, 25 nM C39-Eu; 0.5% DMSO; 50% inhibition of FRET signal
T2 construct: made in house; host or cells: chemical peptide synthesis

Row | Molecule | IC50 [1] | IC50 [2]
1 | CC[C@H](C)[C@H](NC(=O)[C@H](Cc1ccccc1)NC(=O)[C@H](C)NC(=O)[C@H](CC(C)C)NC(=O)[C@H](CO)NC(=O)[C@H](CCC(N)=O)NC(=O)[C@H](CC(N)=O)NC(=O)[C@@H](NC(=O)[C@H](CCCCN)NC(=O)[C@H](CCC(=O)O)NC(=O)[C@H](CC(N)=O)NC(=O)[C@@H](NC(=O)[C@H](CCC(N)=O)NC(=O)[C@H](CO)NC(=O)[C@@H](NC(=O)[C@H](CO)NC(=O)[C@H](C)NC(=O)[C@H](CC(=O)O)NC(=O)[C@H](Cc1ccccc1)NC(=O)[C@H](CCC(=O)O)NC(=O)[C@H](CC(=O)O)NC(=O)[C@H](CO)NC(=O)[C@@H]1CCCN1C(=O)[C@H](Cc1ccccc1)NC(=O)[C@@H](N)C(C)C)[C@@H](C)CC)C(C)C)[C@@H](C)CC)C(=O)N[C@@H](CCCNC(=N)N)C(=O)N[C@@H](CCCCN)C(=O)N[C@@H](CO)C(=O)N[C@@H](CC(=O)O)C(=O)N[C@@H](CCC(=O)O)C(=O)N[C@@H](CC(C)C)C(=O)N[C@@H](CC(C)C)C(=O)N[C@@H](Cc1c[nH]cn1)C(=O)N[C@@H](CC(N)=O)C(=O)N[C@H](C(=O)N[C@@H](CC(N)=O)C(=O)N[C@@H](C)C(=O)NCC(=O)N[C@@H](CCCCN)C(=O)O)C(C)C [C39] (H-VFPSDEFDASISQVNEKINQSLAFIRKSDELLHNVNAGK-OH; N-terminus and C-terminus assumed) | 0.064 µM | 0.076 µM
2 | NFYDPLVFPSDEFDASISQVNEKINQSLAFIRKSDELLHNVNAGK [C45] | 0.074 µM | 0.076 µM
3 | enfuvirtide | > 10 µM | > 10 µM
